Patent publication US20120100561A1
No constants are given. Whether binding was seen depends on the method and setting. For part of these data: In cells and extracts the contact can be indirect. Some binding calls cover weakened binding; strength is not graded here.

Chains of the proteins cited; added tags and fusions are not shown. Lines headed by an entry give the natural chain unless they say otherwise; changes in a name come on top.
UniProt P08134: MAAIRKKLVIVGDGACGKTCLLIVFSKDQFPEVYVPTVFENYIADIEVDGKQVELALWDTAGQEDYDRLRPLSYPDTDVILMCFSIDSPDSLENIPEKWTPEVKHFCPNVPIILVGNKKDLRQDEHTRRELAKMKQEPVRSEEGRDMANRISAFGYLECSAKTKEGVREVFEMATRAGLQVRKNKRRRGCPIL
UniProt Q6P5Z2: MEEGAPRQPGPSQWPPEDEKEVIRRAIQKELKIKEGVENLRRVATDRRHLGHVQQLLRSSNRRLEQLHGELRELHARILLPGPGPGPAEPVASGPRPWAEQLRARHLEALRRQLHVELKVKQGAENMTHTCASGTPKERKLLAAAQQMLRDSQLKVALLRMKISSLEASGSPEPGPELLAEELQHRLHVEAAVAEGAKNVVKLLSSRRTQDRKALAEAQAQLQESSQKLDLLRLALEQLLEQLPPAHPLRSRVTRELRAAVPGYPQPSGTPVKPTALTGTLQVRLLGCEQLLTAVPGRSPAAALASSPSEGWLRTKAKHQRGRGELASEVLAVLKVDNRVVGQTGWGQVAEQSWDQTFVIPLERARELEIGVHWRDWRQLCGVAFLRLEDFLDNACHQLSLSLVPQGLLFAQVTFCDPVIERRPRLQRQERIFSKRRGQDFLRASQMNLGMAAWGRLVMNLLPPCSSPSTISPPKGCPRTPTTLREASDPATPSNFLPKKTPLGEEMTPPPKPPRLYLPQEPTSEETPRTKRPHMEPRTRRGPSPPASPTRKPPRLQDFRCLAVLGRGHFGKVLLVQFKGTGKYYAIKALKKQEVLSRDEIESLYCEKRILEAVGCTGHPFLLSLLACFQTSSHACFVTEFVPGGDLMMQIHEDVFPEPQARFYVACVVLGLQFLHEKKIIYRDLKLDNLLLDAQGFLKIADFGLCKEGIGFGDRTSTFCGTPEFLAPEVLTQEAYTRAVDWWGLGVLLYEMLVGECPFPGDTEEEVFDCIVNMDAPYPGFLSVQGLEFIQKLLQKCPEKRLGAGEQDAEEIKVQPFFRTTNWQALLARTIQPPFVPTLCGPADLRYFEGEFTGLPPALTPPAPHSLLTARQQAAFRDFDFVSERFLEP

What was measured:
[1] = molecular target: Myc-RhoC (N-terminal Myc epitope-tagged full-length human RhoC) (human) (UniProt P08134); test: anti-Flag M2 co-immunoprecipitation from transfected HEK293T cells, Western blot
[2] = molecular target: Myc-RhoC (N-terminal Myc epitope-tagged full-length human RhoC) (human) (UniProt P08134); test: anti-Flag M2 co-immunoprecipitation from transfected PC3 cells, Western blot
[3] = molecular target: Myc-RhoC (N-terminal Myc epitope-tagged full-length human RhoC) (human) (UniProt P08134); test: anti-Flag immunoprecipitation, Western blot (FIG. 4, panel B)

Measured: binding

Flag-PKN3 wt (N-terminal Flag epitope-tagged full-length kinase active human PKN3) (from UniProt Q6P5Z2 1-889) (enzyme)
binds: all assays above
